Results reported in article PMC11211331.
These are yes or no findings as the source states them, for the method shown. Binding seen in cells or lysates may run through a third protein. Some entries that bind do so weakly or less than the wild type.

Amino acid sequences for entries named in this document (tags omitted).
UniProt O54889: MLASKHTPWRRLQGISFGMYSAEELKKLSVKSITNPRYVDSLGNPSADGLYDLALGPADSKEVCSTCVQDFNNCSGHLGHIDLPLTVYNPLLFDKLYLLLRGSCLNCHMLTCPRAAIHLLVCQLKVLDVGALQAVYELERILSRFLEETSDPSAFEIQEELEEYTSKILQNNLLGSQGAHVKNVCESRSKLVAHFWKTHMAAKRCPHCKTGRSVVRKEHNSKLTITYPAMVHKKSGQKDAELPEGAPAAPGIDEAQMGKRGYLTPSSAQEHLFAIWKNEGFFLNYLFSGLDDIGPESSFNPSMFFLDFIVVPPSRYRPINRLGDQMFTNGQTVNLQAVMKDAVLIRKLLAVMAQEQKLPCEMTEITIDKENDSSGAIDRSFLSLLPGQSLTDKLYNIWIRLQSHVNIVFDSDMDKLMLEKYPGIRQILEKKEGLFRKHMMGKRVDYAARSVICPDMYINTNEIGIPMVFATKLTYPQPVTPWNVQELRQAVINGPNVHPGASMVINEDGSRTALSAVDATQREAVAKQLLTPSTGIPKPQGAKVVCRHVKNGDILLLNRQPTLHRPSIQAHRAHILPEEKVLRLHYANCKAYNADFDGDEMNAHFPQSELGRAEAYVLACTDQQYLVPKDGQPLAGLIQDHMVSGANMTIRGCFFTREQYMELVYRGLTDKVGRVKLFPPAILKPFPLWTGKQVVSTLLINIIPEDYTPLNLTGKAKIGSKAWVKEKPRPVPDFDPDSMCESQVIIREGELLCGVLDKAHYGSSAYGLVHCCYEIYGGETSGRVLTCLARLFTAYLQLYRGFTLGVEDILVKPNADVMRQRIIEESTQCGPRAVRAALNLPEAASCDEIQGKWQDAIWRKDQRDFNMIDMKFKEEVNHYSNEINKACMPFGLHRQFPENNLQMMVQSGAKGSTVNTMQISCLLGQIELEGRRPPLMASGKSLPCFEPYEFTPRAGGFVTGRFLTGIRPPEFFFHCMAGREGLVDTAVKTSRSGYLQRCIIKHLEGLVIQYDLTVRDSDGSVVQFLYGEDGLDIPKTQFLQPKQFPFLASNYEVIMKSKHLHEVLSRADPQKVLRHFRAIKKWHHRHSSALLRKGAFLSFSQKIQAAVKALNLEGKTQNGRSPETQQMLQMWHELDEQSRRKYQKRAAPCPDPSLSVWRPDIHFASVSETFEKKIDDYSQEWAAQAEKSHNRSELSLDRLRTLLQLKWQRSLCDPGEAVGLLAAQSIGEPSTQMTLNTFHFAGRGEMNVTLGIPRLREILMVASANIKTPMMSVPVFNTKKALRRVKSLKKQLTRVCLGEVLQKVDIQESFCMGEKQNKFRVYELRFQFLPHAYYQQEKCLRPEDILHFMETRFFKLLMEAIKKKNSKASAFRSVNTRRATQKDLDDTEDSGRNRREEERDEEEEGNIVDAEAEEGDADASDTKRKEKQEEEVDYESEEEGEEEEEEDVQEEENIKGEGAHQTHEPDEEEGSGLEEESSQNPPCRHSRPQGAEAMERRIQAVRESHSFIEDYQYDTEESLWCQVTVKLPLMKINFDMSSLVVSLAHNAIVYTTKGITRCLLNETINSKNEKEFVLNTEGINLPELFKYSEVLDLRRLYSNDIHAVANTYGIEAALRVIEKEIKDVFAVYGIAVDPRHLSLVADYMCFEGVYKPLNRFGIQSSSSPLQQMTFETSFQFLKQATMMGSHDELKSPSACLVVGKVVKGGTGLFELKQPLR

B1: coronin 2B (endogenous, cortical neurons) (protein, UniProt F1LMV9 1-480)
chain: MTVTKMSWRPQYRSSKFRNVYGKVANREHCFDGIPITKNVHDNHFCAVNARFLAIVTESAGGGSFLVIPLEQTGRIEPNYPKVCGHQGNVLDIKWNPFIDNIIASCSEDTSVRIWEIPEGGLKRNMTEALLELHGHSRRVGLVEWHPTTNNILFSAGYDYKVLIWNLDIGEPVKMIDCHTDVILCMSFNTDGSLLTTTCKDKKLRVIEPRSGRVLQEANCKNHRVNRVVFLGNMKRLLTTGVSRWNTRQIALWDQEDLSMPMIEEEIDGLSGLLFPFYDADTHMLYLAGKGDGNIRYYEISTEKPYLSYLMEFRSPAPQKGLGVMPKHGLDVSACEVFRFYKLVTLKGLIEPISMIVPRRSDSYQEDIYPMTPGTEPALTPDEWLGGVNRDPVLMSLKEGYKKSSKVVFKAPIREKKSVVVNGIDLLENVPPRTENELLRMFFRQQDEIRRLKEELAQKDIRLRQLQLELKNLRNNPKNC
B2: upstream binding factor (endogenous, cortical neurons) (protein, UniProt P25977 1-764)
chain: MNGEADCPTDLEMAAPKGQDRWSQEDMLTLLECMKNNLPSNDSSKFKTTESHMDWEKVAFKDFSGDMCKLKWVEISNEVRKFRTLTELILDAQEHVKNPYKGKKLKKHPDFPKKPLTPYFRFFMEKRAKYAKLHPEMSNLDLTKILSKKYKELPEKKKMKYIQDFQREKQEFERNLARFREDHPDLIQNAKKSDIPEKPKTPQQLWYTHEKKVYLKVRPDATTKEVKDSLGKQWSQLSDKKRLKWIHKALEQRKEYEEIMRDYIQKHPELNISEEGITKSTLTKAERQLKDKFDGRPTKPPPNSYSLYCAELMANMKDVPSTERMVLCSQQWKLLSQKEKDAYHKKCDQKKKDYEVELLRFLESLPEEEQQRVLGEEKMLNINKKQTTSPASKKPSQEGGKGGSEKPKRPVSAMFIFSEEKRRQLQEERPELSESELTRLLARMWNDLSEKKKAKYKAREAALKAQSERKPGGEREDRGKLPESPKRAEEIWQQSVIGDYLARFKNDRVKALKAMEMTWNNMEKKEKLMWIKKAAEDQKRYERELSEMRAPPAATNSSKKMKFQGEPKKPPMNGYQKFSQELLSNGELNHLPLKERMVEIGSRWQRISQSQKEHYKKLAEEQQRQYKVHLDLWVKSLSPQDRAAYKEYISNKRKNMTKLRGPNPKSSRTTLQSKSESEEDDDEEDDDDDDEEEEEDDENGDSSEDGGDSSESSSEDESEDGDENEDDDDDEDDDEDDDEDEDNESEGSSSSSSSSGDSSDSDSN
B3: TAFIp110 (a subunit of SL-1 complex) (protein, UniProt Q6P773 1-842)
chain: MDFPSTLRPSLFMAGPLGMTDGPDLSFMCSWRDALTLPGAQPQNCRDQTSSFAKNLLWEPSTPGPLPLVPPGPDPWDPGLAAQDFLFRGGHYYQYQSRVVLDVTEQLSRFLWDHGDIAFAPLGKLMLENFRLEGNRGYSKKVTIVSVKRLLQDLGGHQPWGCPWASLSRRLRRFSILGGPVLSRSVSLLMGRLLHEELATRWEQLLMDEAFTGGALAWLPGRTARAGQLVYPSGGALDKLYFQEVSVNSGGNPRVLEDPGHIQLRGPVRQVVTSTVQGETLLAVRSDYHCAVWKIDKQEPPAPLQVLQVEKGATGISLSPHLSGELAICSRSGTVCLWTPQDGLQTIYKDPETLAFRDPSPWRWADFTAHPRVLTVGDRTGVKMVDIQGPPGCGLLLFCAGAEAACQKGERVLLAQYLGQPGPASTSLHLICTQFSIYLMDERLPLVPMLKWDHGLPSAPLLARLLPPASPGYPRPLLLGGQGGQVQLLHIAGEGTSIPQLAGPPQSLPSITDSLSAFPLLEPKRQQQLQERLEAPVIGLAAAPPCASAPGLLLFQLSAAGDVFYQHLRIQQTSSLREPDHPAPERPASRAAAPPVDQGSTPSWTSRASARCSRWLEALMELSPTNPVWAAPTFSHRRFLGHMERQKSQETLAQKLQAAMAKGQLLRPGDLGTLPKAEPPPAPQCSQQDELTERLTKAWEGQAAAWWKRHQDQTSGSQRQSKRPKRRTQLSSTFSSFTSYMDSPDASSAPHSQDLSNSEACPQPPRTPPSQELTQELWAQGVQHERRQTLRDYMAKLPLQDNPGPVATPPSQTSSRQTRSFRQQTPVLSGSHPPRKKPRMGF

Legend:
[1] = target: T1, upstream binding factor (endogenous, cortical neurons) (rat (endogenous in cortical neurons)) (UniProt P25977); experiment: co-IP; UBF immunoprecipitated from nuclear extracts of cortical neurons cultured for 14 days; mouse IgG as negative control; antibody overnight at 4 °C, protein G beads; western blot
T1 sequence: B2 chain

[2] = target: RPA194 (a subunit of Pol I) (rat (endogenous in cortical neurons)) (UniProt O54889); experiment: co-IP; Pol I immunoprecipitated with an antibody against RPA194 from nuclear extracts of cortical neurons infected with shCoro2B lentivirus or scramble control for 5 days; UBF and TAFIp110 detected on immunoblots

| Binder | binding [1] | binding [2] |
| --- | --- | --- |
| B1 | binds | – |
| B2 | – | binds |
| B3 | – | binds |
